Measurements as given in the supplement of paper PMC8728848.
This is one part of the list.

Experiments:
Assay in all cases: glycan array binding signal (z-score within array); higher = stronger binding
Settings in all cases: glycan notation: IUPAC condensed, linker removed
[1] = molecular target: GlcNAc(b1-2)Man(a1-3)[GlcNAc(b1-2)Man(a1-6)]Man(b1-4)GlcNAc(b1-4)GlcNAc
In short: (§1)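 Columns mapping to the same glycan were averaged after glycan names were converted to IUPAC-condensed notation. The data come from 3228 arrays in the Consortium for Functional Glycomics database, limited to those with an available protein sequence. Binding is reported as a within-array Z-score averaged across arrays of one protein sequence and across linkers.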

[2] = molecular target: GlcNAc(b1-2)Man(a1-3)[GlcNAc(b1-2)Man(a1-6)]Man(b1-4)GlcNAc(b1-4)[Fuc(a1-6)]GlcNAc
In short: as §1

[3] = molecular target: GlcNAc(b1-2)Man(a1-3)[GlcNAc(b1-4)][GlcNAc(b1-2)Man(a1-6)]Man(b1-4)GlcNAc(b1-4)GlcNAc
In short: as §1

[4] = molecular target: GlcNAc(b1-2)Man(a1-3)[GlcNAc(b1-4)][GlcNAc(b1-2)Man(a1-6)]Man(b1-4)GlcNAc(b1-4)[Fuc(a1-6)]GlcNAc
In short: as §1

[5] = molecular target: GlcNAc(b1-2)[GlcNAc(b1-4)]Man(a1-3)[GlcNAc(b1-2)Man(a1-6)]Man(b1-4)GlcNAc(b1-4)GlcNAc
In short: as §1

[6] = molecular target: GlcNAc(b1-2)[GlcNAc(b1-4)]Man(a1-3)[GlcNAc(b1-4)][GlcNAc(b1-2)Man(a1-6)]Man(b1-4)GlcNAc(b1-4)GlcNAc
In short: as §1

[7] = molecular target: GlcNAc(b1-2)[GlcNAc(b1-4)]Man(a1-3)[GlcNAc(b1-4)][GlcNAc(b1-2)[GlcNAc(b1-6)]Man(a1-6)]Man(b1-4)GlcNAc(b1-4)GlcNAc
In short: as §1

[8] = molecular target: GlcNAc(b1-2)[GlcNAc(b1-4)]Man(a1-3)[GlcNAc(b1-4)][GlcNAc(b1-2)[GlcNAc(b1-6)]Man(a1-6)]Man(b1-4)GlcNAc(b1-4)[Fuc(a1-6)]GlcNAc
In short: as §1

[9] = molecular target: GlcNAc(b1-2)[GlcNAc(b1-6)]Man(a1-6)[GlcNAc(b1-2)Man(a1-3)]Man(b1-4)GlcNAc(b1-4)GlcNAc
In short: as §1

[10] = molecular target: GlcNAc(b1-2)[GlcNAc(b1-6)]Man(a1-6)[GlcNAc(b1-2)Man(a1-3)]Man(b1-4)GlcNAc(b1-4)[Fuc(a1-6)]GlcNAc
In short: as §1

[11] = molecular target: GlcNAc(b1-2)[GlcNAc(b1-6)]Man(a1-6)[GlcNAc(b1-4)][GlcNAc(b1-2)Man(a1-3)]Man(b1-4)GlcNAc(b1-4)GlcNAc
In short: as §1

GlcNAc(b1-3)Fuc = molecular target: GlcNAc(b1-3)Fuc
In short: as §1

GlcNAc(b1-3)Gal = molecular target: GlcNAc(b1-3)Gal
In short: as §1

[12] = molecular target: GlcNAc(b1-3)Gal(b1-3)GalNAc
In short: as §1

GlcNAc(b1-3)Gal(b1-4)Glc = molecular target: GlcNAc(b1-3)Gal(b1-4)Glc
In short: as §1

[13] = molecular target: GlcNAc(b1-3)Gal(b1-4)GlcNAc
In short: as §1

[14] = molecular target: GlcNAc(b1-3)Gal(b1-4)GlcNAc(b1-2)Man(a1-3)[GlcNAc(b1-3)Gal(b1-4)GlcNAc(b1-2)Man(a1-6)]Man(b1-4)GlcNAc(b1-4)GlcNAc
In short: as §1

[15] = molecular target: GlcNAc(b1-3)Gal(b1-4)GlcNAc(b1-2)Man(a1-3)[GlcNAc(b1-3)Gal(b1-4)GlcNAc(b1-2)Man(a1-6)]Man(b1-4)GlcNAc(b1-4)[Fuc(a1-6)]GlcNAc
In short: as §1

[16] = molecular target: GlcNAc(b1-3)Gal(b1-4)GlcNAc(b1-2)[GlcNAc(b1-3)Gal(b1-4)GlcNAc(b1-6)]Man(a1-6)[GlcNAc(b1-3)Gal(b1-4)GlcNAc(b1-2)Man(a1-3)]Man(b1-4)GlcNAc(b1-4)GlcNAc
In short: as §1

[17] = molecular target: GlcNAc(b1-3)Gal(b1-4)GlcNAc(b1-3)Gal(b1-4)GlcNAc
In short: as §1

[18] = molecular target: GlcNAc(b1-3)Gal(b1-4)GlcNAc(b1-3)Gal(b1-4)GlcNAc(b1-2)Man(a1-3)[GlcNAc(b1-3)Gal(b1-4)GlcNAc(b1-3)Gal(b1-4)GlcNAc(b1-2)Man(a1-6)]Man(b1-4)GlcNAc(b1-4)GlcNAc
In short: as §1

[19] = molecular target: GlcNAc(b1-3)Gal(b1-4)GlcNAc(b1-3)Gal(b1-4)GlcNAc(b1-2)Man(a1-3)[GlcNAc(b1-3)Gal(b1-4)GlcNAc(b1-3)Gal(b1-4)GlcNAc(b1-2)Man(a1-6)]Man(b1-4)GlcNAc(b1-4)[Fuc(a1-6)]GlcNAc
In short: as §1

[20] = molecular target: GlcNAc(b1-3)Gal(b1-4)GlcNAc(b1-3)Gal(b1-4)GlcNAc(b1-2)[GlcNAc(b1-3)Gal(b1-4)GlcNAc(b1-3)Gal(b1-4)GlcNAc(b1-6)]Man(a1-6)[GlcNAc(b1-3)Gal(b1-4)GlcNAc(b1-3)Gal(b1-4)GlcNAc(b1-2)Man(a1-3)]Man(b1-4)GlcNAc(b1-4)[Fuc(a1-6)]GlcNAc
In short: as §1

[21] = molecular target: GlcNAc(b1-3)Gal(b1-4)GlcNAc(b1-3)Gal(b1-4)GlcNAc(b1-3)Gal(b1-4)GlcNAc(b1-2)Man(a1-3)[GlcNAc(b1-3)Gal(b1-4)GlcNAc(b1-3)Gal(b1-4)GlcNAc(b1-3)Gal(b1-4)GlcNAc(b1-2)Man(a1-6)]Man(b1-4)GlcNAc(b1-4)GlcNAc
In short: as §1

[22] = molecular target: GlcNAc(b1-3)Gal(b1-4)GlcNAc(b1-3)Gal(b1-4)GlcNAc(b1-3)Gal(b1-4)GlcNAc(b1-2)Man(a1-3)[GlcNAc(b1-3)Gal(b1-4)GlcNAc(b1-3)Gal(b1-4)GlcNAc(b1-3)Gal(b1-4)GlcNAc(b1-2)Man(a1-6)]Man(b1-4)GlcNAc(b1-4)[Fuc(a1-6)]GlcNAc
In short: as §1

[23] = molecular target: GlcNAc(b1-3)Gal(b1-4)GlcNAc(b1-3)Gal(b1-4)GlcNAc(b1-3)Gal(b1-4)GlcNAc(b1-2)[GlcNAc(b1-3)Gal(b1-4)GlcNAc(b1-3)Gal(b1-4)GlcNAc(b1-3)Gal(b1-4)GlcNAc(b1-6)]Man(a1-6)[GlcNAc(b1-3)Gal(b1-4)GlcNAc(b1-3)Gal(b1-4)GlcNAc(b1-3)Gal(b1-4)GlcNAc(b1-2)Man(a1-3)]Man(b1-4)GlcNAc(b1-4)[Fuc(a1-6)]GlcNAc
In short: as §1

[24] = molecular target: GlcNAc(b1-3)Gal(b1-4)GlcNAc(b1-3)Gal(b1-4)GlcNAc(b1-3)Gal(b1-4)GlcNAc(b1-3)Gal(b1-4)GlcNAc(b1-2)Man(a1-3)[GlcNAc(b1-3)Gal(b1-4)GlcNAc(b1-3)Gal(b1-4)GlcNAc(b1-3)Gal(b1-4)GlcNAc(b1-3)Gal(b1-4)GlcNAc(b1-2)Man(a1-6)]Man(b1-4)GlcNAc(b1-4)GlcNAc
In short: as §1

[25] = molecular target: GlcNAc(b1-3)Gal(b1-4)GlcNAc(b1-3)Gal(b1-4)GlcNAc(b1-3)Gal(b1-4)GlcNAc(b1-3)Gal(b1-4)GlcNAc(b1-2)Man(a1-3)[GlcNAc(b1-3)Gal(b1-4)GlcNAc(b1-3)Gal(b1-4)GlcNAc(b1-3)Gal(b1-4)GlcNAc(b1-3)Gal(b1-4)GlcNAc(b1-2)Man(a1-6)]Man(b1-4)GlcNAc(b1-4)[Fuc(a1-6)]GlcNAc
In short: as §1

[26] = molecular target: GlcNAc(b1-3)Gal(b1-4)GlcNAc(b1-3)Gal(b1-4)GlcNAc(b1-3)Gal(b1-4)GlcNAc(b1-3)Gal(b1-4)GlcNAc(b1-2)[GlcNAc(b1-3)Gal(b1-4)GlcNAc(b1-3)Gal(b1-4)GlcNAc(b1-3)Gal(b1-4)GlcNAc(b1-3)Gal(b1-4)GlcNAc(b1-6)]Man(a1-6)[GlcNAc(b1-3)Gal(b1-4)GlcNAc(b1-3)Gal(b1-4)GlcNAc(b1-3)Gal(b1-4)GlcNAc(b1-3)Gal(b1-4)GlcNAc(b1-2)Man(a1-3)]Man(b1-4)GlcNAc(b1-4)[Fuc(a1-6)]GlcNAc
In short: as §1

[27] = molecular target: GlcNAc(b1-3)Gal(b1-4)GlcNAc(b1-3)Gal(b1-4)GlcNAc(b1-3)GalNAc
In short: as §1

B1: Blon2355mut (Bifidobacterium longum) (protein)
chain: MVQEPTLEWHVIPEPTNVEPLVGTCSLPLSGTVVEQRGADDAEAVFARQLVDDIKRVCGGRWQVASGEVQREVTLRTSPSLDDWSYVLEVSPDGVVITGSGFEGVRDGVQTLRQIIRQIGLTIPCMVIRDRPAFSTRGYYLDVTRGRVPSMAWLKSWVDRLCFYKYNQFQLYIEHTFQFNGLSEVWRGADPLTSSDILELDSYCAARGIELVPSVSTFGHHYTALRTRQLRDLGEFPEDADRPFSLIERMTHHTLNITDERSYEFSTSLIDELMPLFRSRKFNICANETFDLGKGRSKQESAKRGVGAMYADFVERLCRHVDDRGHDVMVWADVALEHPEIIDTLPKNITWLNWQYEPNVDDGTTAALADAGATQMVCPAVWCWNALIPRIDDAWNNITRMARHGRAHDVSGMLVTDWGDFGHVNDPRMSVPGMIFGAQQSWNPDAELSEVDMLSRISTIEYGDHTGSVVGALRGASAKGGFSWSDLVTYLELDDGRGGCNTEIVRVMGCLEAYRNDLPQSGQARLADARVSMLRTLRDSILAGRELNGKLDDAAKDITQLLRVAGDPSSAAVWSLAIDGQRLLNRVGLALLAAHGVVRQDEAGIDAAKLADELECWTEQYSRLWHEVSRQSELARIQHVVWRAADVLRSI
glycan array binding signal (z-score) [1]: -0.111 | glycan array binding signal (z-score) [2]: -0.811 | glycan array binding signal (z-score) [3]: -0.863 | glycan array binding signal (z-score) [4]: -0.552 | glycan array binding signal (z-score) [5]: -1.41 | glycan array binding signal (z-score) [6]: -1.06 | glycan array binding signal (z-score) [7]: -1.12 | glycan array binding signal (z-score) [8]: -0.395 | glycan array binding signal (z-score) [9]: 0.421 | glycan array binding signal (z-score) [10]: 0.26 | glycan array binding signal (z-score) [11]: -0.663 | glycan array binding signal (z-score) (GlcNAc(b1-3)Fuc): 2.05 | glycan array binding signal (z-score) (GlcNAc(b1-3)Gal): -0.509 | glycan array binding signal (z-score) [12]: 0.006 | glycan array binding signal (z-score) (GlcNAc(b1-3)Gal(b1-4)Glc): -1.05 | glycan array binding signal (z-score) [13]: -0.807 | glycan array binding signal (z-score) [14]: -0.079 | glycan array binding signal (z-score) [15]: 0.6 | glycan array binding signal (z-score) [16]: 0.064 | glycan array binding signal (z-score) [17]: -0.647 | glycan array binding signal (z-score) [18]: 0.266 | glycan array binding signal (z-score) [19]: 0.248 | glycan array binding signal (z-score) [20]: -0.507 | glycan array binding signal (z-score) [21]: 1.34 | glycan array binding signal (z-score) [22]: 2.21 | glycan array binding signal (z-score) [23]: 0.25 | glycan array binding signal (z-score) [24]: 0.045 | glycan array binding signal (z-score) [25]: 1.1 | glycan array binding signal (z-score) [26]: 0.731 | glycan array binding signal (z-score) [27]: -0.133
